According to patent US11141419B1, “Use of iminosugars as prophylactic and therapy against COVID-19 / SARS-CoV-2” (priority 2020, dated 2021):
For some assays here: At least one structure is not confirmed: it was looked up by name or label, or the drawing left a doubt. Some of these results come from one statement about several compounds together.

Assays:
SARS-CoV-2 virus = format: cell-based; conditions: Vero E6, MOI 0.01, 100 μM iminosugar, 24 hrs, supernatant
SARS-CoV-2 = format: cell-based; conditions: Huh7.0, high MOI (MOI 1), 125 μM, three days

Structure (SMILES) | SARS-CoV-2 viral RNA production / viral genome copy number (N1 gene PCR) (SARS-CoV-2 virus) | viral-induced cell death reversed (SARS-CoV-2)
C[C@H]1O[C@H](O[C@H]2[C@H](O)[C@@H](O)[C@@H](O[C@H]3[C@H](O)[C@@H](O)C(O)O[C@@H]3CO)O[C@@H]2CO)[C@H](O)[C@@H](O)[C@@H]1N[C@H]1C=C(CO)[C@@H](O)[C@H](O)[C@H]1O (some centres unmarked) [Acarbose, acarbose] | significantly reduced | –
OCCN1C[C@H](O)[C@@H](O)[C@H](O)[C@H]1CO [Miglitol, miglitol] | – | over 50%
